In patent publication US10751304B2, “Topical and transdermal delivery of HIF-1 modulators to prevent and treat chronic wounds” (The Board of Trustees of the Leland Stanford Junior …, priority 2008, dated 2020):
“Also recorded” adds a separate entry of the source. At least one structure is not confirmed: it was looked up by name or label, or the drawing left a doubt.

Experiments:
Type in all cases: in vivo
[1] = test system: pressure ulcers on the dorsum of aged mice; experiment: Murine pressure (decubitus) ulcer model in aged mice; conditions: for ulcer formation (ulcer grade): decubitus/pressure ulcer model; for TUNEL staining (apoptotic cells) / Vessel counts (CD31 positive staining): treated ulcers compared to controls
From the text: Pressure ulcers on the dorsum of aged mice (19 month, NIA) and Diabetic (Db/Db) C57Bl/6 mice (n=6 per group) where created using two ceramic magnets (12 mm diameter and 5 mm thick, and average weight of 2.4 g) that apply 50 mm Hg pressure to the skin between them (Stadler et. al. J Invest Surg. 2004 July-August; 17(4):221-7). A single ischemia/reperfusion (I/R) cycle consists of placement of magnets (ischemia) for a designated time period followed by release (reperfusion). Three ischemia-reperfusion cycles were used in each animal to initiate decubitus ulcer formation (either in 3 h or 12 h cycles). Animals were housed individually, to prevent the accidental dislocation of the magnets and to prevent tampering with the resultant ulcer.
(§1) CD31 staining was performed on paraffin embedded 5-micron wound sections (1:50, Santa Cruz Biotechnology, Santa Cruz, Calif.) diluted in blocking goat serum overnight at 4° C. Sections were then stained with goat anti-rat FITC secondary antibody (Santa Cruz Biotechnology, Santa Cruz, Calif.) for 1 hour at room temperature. Sections were then mounted with Vectashield plus DAPI (Vector Laboratories, Burlingame, Calif.), and analyzed using a Zeiss Axioplan 2 light-fluorescent microscope (Carl Zeiss Vision, Germany) equipped with Zeiss AxioCam HR digital imaging software (Carl Zeiss Vision). CD31+ vessel counts were performed by counting the number of capillaries present in 4 separate 40× high power fields (HPF). TUNEL (Roche) staining was also performed. All measurements were performed by two blinded observers.
30 μm fresh frozen sections were washed with PBS and stained with 10 μM Dihydroethidium (DHE, invitrogen) at 37 C for 30 minutes. Slides were then washed with PBS, and Vectashield with DAPI was added.
We evaluated the ability of DFO to prevent pressure ulcer formation, which has been associated with HIF-1α dysfunction and diabetes, using a previously described murine pressure ulcer model. Briefly, two ceramic magnets are placed on the mouse dorsum, applying 50 mmHg pressure to the interlaying skin (FIG. 8A), resulting in measurable oscillations of oxygen tension across repetitive cycles of magnet application (ischemia) and removal (reperfusion). Aged mice subjected to this model were treated with intraperitoneal DFO or saline at day −1 and every other day until ulcer closure.

[2] = test system: excisional wounds of diabetic (Db/Db) mice; experiment: Murine excisional wound healing model, diabetic (Db/Db) mice
From the text: Young (8 weeks, Jackson Laboratories) aged (18-24 months, National Institute of Aging aged rodent colony), and Diabetic (Db/Db) C57/BL6 mice (n=4 per group) underwent excisional wound biopsies in accordance with the Stanford University Institutional Animal Care and Use Committees. Wounds were made as previously described. Briefly, two 6-mm circular, full-thickness wounds were made on the dorsum of mice. A 12 mm diameter, 0.5 mm thick donut shaped silicone ring (Grace Bio-Labs, Bend, Oreg.) was then placed around the wounds preventing premature skin contracture. The silicone rings were glued to the skin with cyanoacrylate glue (Elmer's Products Inc, Columbus, Ohio) and sutured in place with 6 interrupted 6-0 nylon sutures (Ethicon Inc, Somerville, N.J.). Wounds were dressed with a sterile occlusive dressing that was changed daily, monitored, and photographed every other day until closure. Wound area was compared to the area of the inner silicone ring and reported as percentage of the original wound ratio.
as §1
Transdermal delivery of DFO accelerates murine wound healing: Given the optimal release properties and structural parameters determined above, we sought to evaluate the ability of our DFO delivery device to improve gross wound healing in diabetic mice. Patches were applied to fresh murine excisional wounds and replaced every two days.

[3] = test system: ulcer formation in diabetic mice; experiment: Ulcer prophylaxis: 48 h TDDS pre-treatment before ulcer induction in diabetic mice
[4] = DFO applied topically to diabetic lesions

CC(=O)N(O)CCCCCNC(=O)CCC(=O)N(O)CCCCCNC(=O)CCC(=O)N(O)CCCCCN [deferoxamine]
wound healing ([1]; aged mice, intraperitoneal DFO at day -1 and every other day vs saline): improved wound healing
EPC mobilization ([1]; aged mice, intraperitoneal DFO vs saline): increased EPC mobilization
ulcer area ([1]; compared to controls, n=6): smaller ulcer area
ulcer formation (ulcer grade) ([1]; compared to controls): significantly decreases ulcer formation
ulcer formation (ulcer grade) ([1]; compared to controls, listed as DFO): significantly less ulcer formation; also recorded: Reduced incidence of ulcers
TUNEL staining (apoptotic cells) [1]: significantly decreased
Vessel counts (CD31 positive staining) [1]: significantly increased
TUNEL staining (apoptotic cells) ([1]; listed as DFO): decreased apoptosis; also recorded: reduced apoptosis
Vessel counts (CD31 positive staining) ([1]; listed as DFO): increased neovascularization; also recorded: Increased vessel count
Superoxide staining (Dihydroethidium) ([1]; treated ulcers vs control ulcers): significantly increased in control ulcers compared to deferoxamine treated ulcers
gross wound healing [2, 4]: gross wound healing was accelerated
wound vascularity [2, 4]: wound vascularity was significantly improved
Wound closure, dose dependence ([2]; diabetic animals): significantly increased in diabetic animals in a dose dependent manner
CD31 vessel density ([2]; diabetic wounds, deferoxamine 1000 mM vs delivery controls (PBS)): significantly increased
wound healing ([2]; patches on fresh excisional wounds of diabetic mice, replaced every two days, vs sham (PBS) patches): improves recovery of murine full thickness wounds
ulcer formation and skin necrosis ([3]; 48 hours pre-treatment, vs controls, p<0.01): No severe ulcer formation
apoptotic markers cleaved caspase 3 and Bax (Western blot) ([3]; pre-treated vs control wounds): significant reduction of both apoptotic markers
ROS accumulation (DHE stain) ([3]; transdermal DFO treatment, listed as DFO): dramatic decrease of ROS accumulation; also recorded: decreased ROS accumulation
